These are yes or no findings as the source states them, for the method shown. Binding seen in cells or lysates may run through a third protein. Some binding calls cover weakened binding; strength is not graded here.

Amino acid sequences for entries named in this document (tags omitted). Residues count along the entry.
GST-hMSH2 fusion protein comprising hMSH2 amino acid residues 751-934 (P43246, residues 751-934): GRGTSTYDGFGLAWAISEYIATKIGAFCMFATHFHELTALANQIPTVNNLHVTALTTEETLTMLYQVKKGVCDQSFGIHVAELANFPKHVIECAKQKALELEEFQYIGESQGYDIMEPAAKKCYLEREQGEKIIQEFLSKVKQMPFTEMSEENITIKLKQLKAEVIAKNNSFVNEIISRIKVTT
wild type hMSH2 IVTT fragment comprising only the carboxy-terminal interaction region (P43246, residues 875-934): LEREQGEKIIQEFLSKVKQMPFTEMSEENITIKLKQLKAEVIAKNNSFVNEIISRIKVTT

The target of the assay is GST-hMSH2 fusion protein comprising hMSH2 amino acid residues 751-934 (human) (UniProt P43246). The experiment in a line: GST pull-down with GST-hMSH2 (751-934).

With “wild type hMSH2 IVTT fragment comprising only the carboxy-terminal interaction region (from UniProt P43246 875-934)”, the binding result is reported as “binds”.

For the origin of these results see patent US20020058275A1, “Compositions, kits, and methods for effecting adenine nucleotide modulation of DNA mismatch recognition proteins” (Thomas Jefferson University, priority 1997, published 2002).
